In patent US11053476B2, “Generation of cancer stem cells and use thereof” (EXOSTEM BIOTEC LTD., priority 2016, dated 2021):
Some of these results come from one statement about several compounds together.

B1: CTGF: cytokine supplement to the second incubation media (protein, UniProt P29279 27-349, looked up)
CCN family member 2: QNCSGPCRCPDEPAPRCPAGVSLVLDGCGCCRVCAKQLGELCTERDPCDPHKGLFCHFGSPANRKIGVCTAKDGAPCIFGGTVYRSGESFQSSCKYQCTCLDGAVGCMPLCSMDVRLPSPDCPFPRRVKLPGKCCEEWVCDEPKDQTVVGPALAAYRLEDTFGPDPTMIRANCLVQTTEWSACSKTCGMGISTRVTNDNASCRLEKQSRLCMVRPCEADLEENIKKGKKCIRTPKISKPIKFELSGCTSMKTYRAKFCGVCTDGRCCTPHRTTTLPVEFKCPDGEVMKKNMMFIKTCACHYNCPGDNDIFESLYYRKMYGDMA
B2: SPARC: cytokine supplement to the second incubation media (protein, UniProt P09486 18-303, looked up)
SPARC: APQQEALPDETEVVEETVAEVTEVSVGANPVQVEVGEFDDGAEETEEEVVAENPCQNHHCKHGKVCELDENNTPMCVCQDPTSCPAPIGEFEKVCSNDNKTFDSSCHFFATKCTLEGTKKGHKLHLDYIGPCKYIPPCLDSELTEFPLRMRDWLKNVLVTLYERDEDNNLLTEKQKLRVKKIHENEKRLEAGDHPVELLARDFEKNYNMYIFPVHWQFGQLDQHPIDGYLSHTELAPLRAPLIPMEHCTTRFFETCDLDNDKYIALDEWAGCFGIKQKDIDKDLVI

Columns and labels:
[1] = tested on: CSCs generated from differentiated cancer cells; assay: Self-renewal of CSCs (secondary tumorspheres) generated from differentiated cancer cells, factor added to basic protocol; assay type: cell-based; details: cytokine supplemented to second incubation media; FIG. 4A
Procedure: (§1) In order to generate CSCs in vitro, both primary differentiated cancer cells (primary glioma cells) as well as cells from a cancer cell line (U87 cells) were obtained. Glioma cells and U87 cells were trypsinized, and washed three times with medium +10% FCS. The cells were then resuspended in medium that was brought to a pH of 6.0 and were placed on a rotator and incubated for 45-90 minutes. The cells were then incubated in medium supplemented with EGF and FGF. The cells were optionally kept in mild hypoxic conditions (2-3% oxygen) during this second incubation and were then plated on bacterial plates.
(§2) Tumorspheres formed on these plates within one week and were removed from the cells that had attached to the dish. The tumorspheres were disaggregated and the cells were re-plated at limiting dilution to generate secondary spheroids. The secondary tumorspheres were then characterized for CSC specific markers, the ability to self-renew and the ability to generate tumors that recapitulate the parental tumors.
(§3) Knowing that the basic protocol for generating CSCs (acid, EGF/FGF and two rounds of sphere generation) was successful; several modifications to the protocol were examined. […]

Sox2 = Sox2 expression in generated CSCs, factor added to basic protocol; assay type: cell-based; details: cytokine supplemented to second incubation media; FIG. 4B
Procedure: as §1, §2, §3

| Molecule | increase in rate of self-renewal of the resultant CSCs as compared to the basic protocol [1] | increase in total expression of Sox2 (Sox2) |
| --- | --- | --- |
| B1 | ≥ 40% | at least 2 fold |
| B2 | ≥ 40% | at least 2 fold |
